Reference: PubChem BioAssay AID2685 (National Center for Advancing Translational Sciences (NCATS), 2010)
The list shows a part of the results. The main result of the screen is listed elsewhere. These columns were measured beside it and carry no call. Compounds called inactive in the main read-out are mostly missing here. Words in brackets tell the shape of the fitted curve; partial curves, single points and poor fits give uncertain potencies.

Experiment: qHTS Assay for Lipid Storage Modulators in Drosophila S3 Cells;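 on cell number change: cells counted by Cell Tracker Red CMTPX staining in the red channel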
Settings: BODIPY lipid droplet fluorescence, 18-24 h; for cell number change: measured here: cell count max response, cells fed with added oleic acid
Summary of the method: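 Laser-scanning cytometry quantifies lipid droplet accumulation (500–530 nm total intensity; droplet/cell object ratio) in oleic acid-fed (400 uM added) Drosophila S3 cells treated with a concentration series. 20 uM Triacsin C defined 100% inhibition.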

[1] = measured here: lipid fluorescence (Fed channel) AC50, cells fed with added oleic acid
[2] = measured here: cell number channel AC50, cells fed with added oleic acid

| Compound | AC50 [1] | cell number change | AC50 [2] |
| --- | --- | --- | --- |
| O=C(Nc1ccc(Cl)cc1)OCc1cncs1 | 6.51 µM [falling, single point] |  |  |
| COCCNC(=O)C(=O)NNC(=O)CCc1ccccc1 | 0.58 µM [falling, single point] | -10.8% |  |
| O=C(NC1CCCC1)C(=O)N(Cc1cccnc1)C(C(=O)NCC1CCCO1)c1ccco1 (centres undefined) | 6.51 µM [falling, single point] | 4.81% |  |
| COc1ccc(-c2coc3cc(OC4OC(CO)C(O)C(O)C4O)cc(O)c3c2=O)cc1 (centres undefined) | 29.1 µM [rising, single point] | -0.519% |  |
| CCOC(=O)c1cccc(NC(=O)CSc2nnc(C)n2Cc2ccccc2)c1 |  | 5.75% |  |
| C/C(=N\Nc1ncnc2sc(C)c(C)c12)c1ccccn1 |  | 176% | 23.1 µM [rising, single point] |
| CCOC(=O)C1CCN(C(=O)C(=O)Nc2ccc3nc4n(c(=O)c3c2)CCCCC4)CC1 |  | 1.73% |  |
| O=C(CN(C1CCCCC1)S(=O)(=O)c1ccccc1)N1CCCC1 | 29.1 µM [falling, single point] | -136% | 20.6 µM [falling, partial curve] |
| CC(=O)c1ccc(N2CCN(c3ccccc3O)CC2)c([N+](=O)[O-])c1 | 29.1 µM [falling, single point] | -21.4% |  |
| COc1ccc(NC(=O)c2cccc(NC(=O)c3ccccc3)c2)cc1 | 29.1 µM [falling, single point] | -16.1% |  |
| CCc1ccc(N(C(=O)c2ccco2)C(C(=O)NC2CCCC2)c2cccnc2)cc1 (centres undefined) | 29.1 µM [falling, single point] |  | 0.092 µM [falling, full curve, poor fit] |
| Cc1ccc(NNC(=O)Nc2ccc(Cl)cc2)nn1 | 0.731 µM [falling, single point] | -9.19% |  |
| O=C(OCC(=O)N(C1CCCCC1)C1CCCCC1)c1cnccn1 |  | -3.36% |  |
| CCc1noc(C)c1C(=O)NNC(=O)c1ccc(N(CC)CC)cc1 |  | -18.5% |  |
| CCOC(=O)Cc1csc(NC(=O)c2ccc(Br)cc2)n1 | 20.6 µM [falling, single point] | 11.7% |  |
| COc1cccc(/C=N/NC(=O)CC(=O)NCCc2ccccc2)c1OC |  | -9.18% |  |
| CCC(C(=O)NCCN1CCN(C)CC1)n1c(C)c2cnn(-c3ccccc3)c(=O)c2c1C (centres undefined) | 0.164 µM [rising, single point] | -8% |  |
| O=C(c1ccccc1)C1CCN(C(=O)C2CCC(=O)N(Cc3ccccc3F)C2)CC1 (centres undefined) | 22.4 µM [falling, single point] | -29% |  |
| O=C(N/N=C/c1ccc(O)c(O)c1)c1ccc(CSc2cccc3cccnc23)cc1 | 3.26 µM [rising, partial curve] | -3.54% | 2.91 µM [rising, single point] |
| Cc1ccc(CCNC(=O)C2CCN(S(=O)(=O)N3CCOCC3)CC2)cc1 |  | 20.2% |  |
| CCCc1cc(=O)[nH]c(SCC(=O)N(C)C2CCS(=O)(=O)C2)n1 (centres undefined) | 29.1 µM [rising, single point] | 31.4% | 0.116 µM [rising, full curve, poor fit] |

| Compound | AC50 [1] | cell number change | AC50 [2] |
| --- | --- | --- | --- |
| CCCC(=O)Nc1ccc(C(=O)COC(=O)C2=COCCO2)cc1 |  | -24.1% | 0.206 µM [falling, full curve, poor fit] |
| CCOC(=O)c1[nH]c(COC(=O)CCCOc2ccccc2)c(C(=O)OCC)c1C | 0.731 µM [rising, full curve, poor fit] | -23.3% |  |
| CCOc1ccccc1NC(=O)CCSc1nc2n[nH]c(C)c2c(=N)n1-c1ccccc1Cl |  |  | 3.66 µM [rising, single point] |
| CCOC(=O)C1(Cc2ccc(OC)cc2)CCN(C(=O)C2=CCCC2)CC1 | 0.0231 µM [falling, full curve, poor fit] | -26.7% |  |
| NC(=O)c1c(NC(=O)C2CCCO2)sc2c1CCC2 (centres undefined) | 29.1 µM [falling, single point] | -9.03% | 0.00461 µM [falling, full curve, poor fit] |
| Cc1ccnc2nc(C(=O)Nc3ccc4c(c3)OCO4)nn12 | 6.51 µM [rising, partial curve, poor fit] | -5.8% | 0.291 µM [rising, full curve] |
| Cc1c(C)n(Cc2ccccc2)c2ccc(C(=O)NCCCN3CCOCC3)cc12 | 29.1 µM [rising, single point] | 23.9% |  |
| CCCCOc1ccc(C(=O)Oc2ccc(C)nc2)cc1 | 9.2 µM [falling, single point] | 4.46% |  |
| CCCCCCCOC(=O)c1ccc(OC(=O)c2cccnc2)cc1 |  | 12.1% |  |
| O=C(CSc1cccc(C(F)(F)F)c1)NCc1ccccc1 | 0.326 µM [falling, full curve] | -23.7% |  |
| COc1ccc(O)c(/C=N/NC(=O)CCC(=O)Nc2ccc(F)cc2)c1 | 29.1 µM [falling, single point] | -35.7% | 7.31 µM [falling, partial curve] |
| O=C(CNC(=S)N(CCCN1CCOCC1)Cc1cccs1)NC1CCCCC1 | 20.6 µM [rising, single point] | 19% |  |
| COc1ccc(-c2cc(-c3ccccc3)c(C#N)c(=S)[nH]2)cc1 | 0.517 µM [falling, full curve] | -32% | 0.82 µM [falling, full curve, poor fit] |
| Cc1cccnc1NC(=O)CCc1nnc2ccc(N3CCC4(CC3)OCCO4)nn12 | 29.1 µM [rising, single point] | 6.49% |  |
| O=C(NC1CCCCC1)C(c1cccnc1)N(C(=O)c1csnn1)c1ccccc1F (centres undefined) | 0.206 µM [rising, single point] | 13% |  |
| COc1ccccc1NC(=S)N(Cc1cccnc1)Cc1ccco1 | 18.4 µM [rising, single point] | 41.3% | 18.4 µM [rising, single point] |
| N#Cc1nc(Cc2ccccc2)oc1N1CCC(C(N)=O)CC1 | 0.326 µM [falling, full curve, poor fit] | 17.2% |  |
| Nc1nnc(SCC(=O)OCC(=O)c2ccccc2)s1 | 0.164 µM [falling, full curve, poor fit] | -42.2% | 0.164 µM [falling, full curve, poor fit] |
| CCOC(=O)N1CCC(Nc2c(NCCCN(CC)c3cccc(C)c3)c(=O)c2=O)CC1 | 1.64 µM [falling, partial curve] | 14.7% |  |
| NC(=O)c1nsc(C(=O)N(Cc2ccco2)C(C(=O)NCC2CCCO2)c2ccc(O)cc2)c1N (centres undefined) | 29.1 µM [falling, single point] | -13.9% |  |
| COc1ccccc1NC(=O)Cn1cnc2c(nc3n2CCCCC3)c1=O | 16.4 µM [rising, partial curve] | 29% |  |

3 entries out of the list, ordered by heavy-atom count, low to high:

| Compound | AC50 [1] | cell number change | AC50 [2] |
| --- | --- | --- | --- |
| NC(=O)c1c(NC(=O)C2CCCO2)sc2c1CCC2 (centres undefined) | 29.1 µM [falling, single point] | -9.03% | 0.00461 µM [falling, full curve, poor fit] |
| Nc1nnc(SCC(=O)OCC(=O)c2ccccc2)s1 | 0.164 µM [falling, full curve, poor fit] | -42.2% | 0.164 µM [falling, full curve, poor fit] |
| CCOC(=O)C1(Cc2ccc(OC)cc2)CCN(C(=O)C2=CCCC2)CC1 | 0.0231 µM [falling, full curve, poor fit] | -26.7% |  |

More compounds:

| Compound | AC50 [1] | cell number change | AC50 [2] |
| --- | --- | --- | --- |
| Cn1c(=O)c2c(nc(OCc3cccnc3)n2Cc2c(F)cccc2Cl)n(C)c1=O | 3.66 µM [rising, partial curve] |  |  |
| O=C(CSc1ncnc2c1oc1ccccc12)NCc1ccc(F)cc1 | 1.16 µM [rising, full curve, poor fit] | 12.8% |  |
| Cc1cc(Br)ccc1NC(=O)CNC(=O)Cc1ccc(S(=O)(=O)N2CCOCC2)s1 | 0.82 µM [falling, single point] | 3.06% |  |
| O=C1c2ccccc2C(=O)N1Cc1nc(-c2ccccn2)no1 | 6.51 µM [rising, single point] | -18.4% |  |
| CC1(C)CN(c2ccc(C(=O)c3ccccc3)cc2)C1=O | 2.91 µM [falling, single point] | 24% |  |
| Oc1oc(-c2ccco2)nc1C=Nc1cccc(Cl)c1 |  | -12.5% |  |
| CCOC(=O)c1cnn(CC2CCCCC2)c1N | 0.231 µM [falling, full curve] | -10.2% |  |
| COc1cc2c(cc1NC(=O)Nc1ccc(C)cc1)oc1ccccc12 |  | -15.6% |  |
| COCC(C)n1c(SCC(=O)c2cc(C)n(C)c2C)nc2ccccc2c1=O (centres undefined) | 29.1 µM [rising, single point] | 37.7% | 0.0231 µM [rising, full curve, poor fit] |
| Cc1cccc(NC(=O)NNC(=O)CCc2ccccc2)c1 | 0.13 µM [rising, full curve, poor fit] | 19.8% |  |
| Cc1ccc2[nH]c3c(=O)n(CCC4=CCCCC4)cnc3c2c1 |  | 94.9% |  |
| O=C(CN(C1CCCCC1)S(=O)(=O)c1ccc(Cl)cc1)N1CCOCC1 | 29.1 µM [rising, single point] | -7.99% |  |
| CC1CC(C)CN(S(=O)(=O)N2CCCC(C(=O)NCCCN3CCCCC3C)C2)C1 (centres undefined) |  | 9.48% |  |
| COc1cc(OC)cc(-c2nnc(N(C)C(=O)c3ccncc3)s2)c1 |  | 18.1% | 3.66 µM [rising, single point] |
| COCCn1c(-c2ccc(Cl)cc2Cl)nc2c(c(=O)c3ccccc3n2C)c1=O | 0.184 µM [rising, full curve, poor fit] | 21.9% |  |
| CCc1ccc(CN(C)C(=O)c2cc(COc3cc(C)c(Cl)c(C)c3)on2)nc1 |  | 0.295% |  |
| COc1ccc(OC)c(NC(=O)Nc2ccc3c(c2)CCC3)c1 | 22.4 µM [falling, single point] | -46.5% | 11.2 µM [falling, partial curve] |
| CCN(C(=O)c1cnc(N2CCN(c3ncccn3)CC2)c2ccccc12)c1cccc(Cl)c1 | 29.1 µM [falling, single point] | -8% |  |
| CCOC(=O)C1CCN(C2=C(NS(=O)(=O)c3ccc(Br)cc3)C(=O)c3ccccc3C2=O)CC1 | 10.3 µM [falling, single point] | -79.1% | 13 µM [falling, partial curve, poor fit] |
